Measured values: paper PMC10932240
These are yes or no findings as the source states them, for the method shown. Binding seen in cells or lysates may run through a third protein. Binding can be weak; no strength is given. Where a sequence is shown, tags or fusion partners need not be part of it.

Biological target: T1, Flag-VPS18 (pig (cloned from PAMs)) (UniProt F1SSU6)
T1 sequence: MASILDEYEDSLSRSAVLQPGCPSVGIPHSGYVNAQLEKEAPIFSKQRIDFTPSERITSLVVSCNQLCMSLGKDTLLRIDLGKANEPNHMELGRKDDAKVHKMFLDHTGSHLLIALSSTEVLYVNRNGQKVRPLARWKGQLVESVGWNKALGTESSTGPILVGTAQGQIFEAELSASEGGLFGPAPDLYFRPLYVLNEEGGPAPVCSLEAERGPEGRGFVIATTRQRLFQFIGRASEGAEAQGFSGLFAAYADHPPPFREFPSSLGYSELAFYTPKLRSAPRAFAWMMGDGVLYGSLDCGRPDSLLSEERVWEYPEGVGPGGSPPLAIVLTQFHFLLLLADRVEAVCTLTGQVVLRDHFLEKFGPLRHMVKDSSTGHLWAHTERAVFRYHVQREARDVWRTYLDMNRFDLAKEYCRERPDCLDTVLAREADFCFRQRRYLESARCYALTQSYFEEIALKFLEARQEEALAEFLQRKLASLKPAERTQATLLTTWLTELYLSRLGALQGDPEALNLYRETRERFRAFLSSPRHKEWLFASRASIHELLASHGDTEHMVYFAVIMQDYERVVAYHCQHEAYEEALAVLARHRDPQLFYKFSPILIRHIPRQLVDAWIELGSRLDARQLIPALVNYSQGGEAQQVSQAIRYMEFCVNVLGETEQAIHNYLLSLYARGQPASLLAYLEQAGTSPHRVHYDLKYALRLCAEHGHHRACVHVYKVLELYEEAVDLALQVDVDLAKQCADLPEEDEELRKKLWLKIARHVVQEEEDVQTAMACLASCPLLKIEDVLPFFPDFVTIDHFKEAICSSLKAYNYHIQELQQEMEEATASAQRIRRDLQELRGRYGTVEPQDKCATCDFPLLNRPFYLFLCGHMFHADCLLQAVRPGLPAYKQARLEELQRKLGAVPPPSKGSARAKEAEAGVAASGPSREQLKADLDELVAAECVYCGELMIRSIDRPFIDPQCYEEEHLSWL
Experiment: co-IP; HEK293T co-transfected with Flag-host protein and Myc-GP5 for 24 h, NP-40 lysate; anti-Flag M2 affinity gel 4 h at 4 °C, five washes; western blot

For Myc-GP5 (PRRSV Hn07-1 (Type 2 PRRSV)), the binding was “binds”.
